Test results: the supplement of paper PMC10373366
Counter-ions that a name gives are not always drawn. This is one part of the list. Most values come without repeats; read them as rough.

test system: A2780; experiment: cell growth inhibition ratio vs untreated control (CCK8); higher = stronger inhibition of cell viability; conditions: 10 µM; 48 h
Protocol: (§1)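 Natural product library (Topscience) screened at 10 µM final concentration for 48 h on ovarian cancer A2780 cells and patient-derived ovarian cancer cells (PDC) in 96-well plates; viability read by CCK8 and reported as inhibition ratio (%) relative to untreated control. Single-dose primary screen.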

Row | Structure (SMILES) | cell growth inhibition ratio [%]
1 | CC1CCCCCCCCCCCCC(=O)C1 (centres undefined) [Muscone] | 21.6
2 | CC(=O)[C@H]1CC[C@H]2[C@@H]3CC=C4C[C@@H](O)CC[C@]4(C)[C@H]3CC[C@]12C [Pregnenolone] | 21.4
3 | OC[C@@H](O)[C@@H](O)CO [Erythritol] | 1.8
4 | COc1cc(C=CC(=O)O)cc(OC)c1O [Sinapinic Acid] | 4.1
5 | COc1ccc2cc1Oc1ccc(cc1)C[C@H]1c3cc(c(OC)cc3CCN1C)Oc1c(OC)c(OC)cc3c1[C@H](C2)N(C)CC3 [Tetrandrine] | 89.4
6 | Cc1cccc2c3c(ccc12)C1=C(C(=O)C3=O)[C@@H](C)CO1 [Dihydrotanshinone I] | 93.6
7 | CC12CCC(CC1)C(C)(C)O2 [Eucalyptol] | 17.9
8 | COc1ccc(-c2oc3cc(O)cc(O)c3c(=O)c2O)cc1 [kaempferide] | 7.67

test system: patient-derived ovarian cancer cells (PDC); experiment: as above; conditions: 10 µM; 48 h
Protocol: as §1

Row | Structure (SMILES) | cell growth inhibition ratio [%]
9 | Nc1ncnc2c1ncn2[C@@H]1O[C@H](CO)[C@@H](O)[C@H]1O [Adenosine] | -5.26
10 | C/C=C/c1ccc(OC)cc1 [Trans-Anethole] | -3.2
11 | C[C@H](CCC(=O)NCCS(=O)(=O)O)[C@H]1CC[C@H]2[C@@H]3[C@H](O)C[C@@H]4C[C@H](O)CC[C@]4(C)[C@H]3C[C@H](O)[C@]12C [Taurocholic acid sodium salt hydrate] | -7.17
12 | O=C1OC(=O)[C@H]2[C@@H]1[C@@H]1CC[C@H]2O1 [Norcantharidin] | 6.21
13 | CCOC(=O)C1=C[C@]2(CC)CCCN3CCc4c(n1c1ccccc41)[C@@H]32 [Vinpocetine] | -9.59
14 | COc1ccc2[nH]cc(CCNC(C)=O)c2c1 [Melatonine] | -47
15 | CCc1c2c(nc3ccc(OC(=O)N4CCC(N5CCCCC5)CC4)cc13)-c1cc3c(c(=O)n1C2)COC(=O)[C@]3(O)CC [Irinotecan] | 14
16 | CC(C)=CCC[C@@](O)(CO[C@@H]1O[C@H](CO)[C@@H](O)[C@H](O)[C@H]1O)[C@H]1CC[C@]2(C)[C@@H]1CC[C@@H]1[C@@]3(C=O)CC[C@H](O[C@@H]4OC[C@H](O)[C@H](O[C@@H]5OC[C@@H](O)[C@H](O)[C@H]5O)[C@H]4O[C@@H]4O[C@@H](C)[C@H](O)[C@@H](O)[C@H]4O)C(C)(C)[C@@H]3CC[C@]12C [Gypenoside XLIX] | 14.9
17 | CC1OC(OC2C(OC3CC4(C)C(CC(O)C5C(C6(C)CCC(C(C)(C)O)O6)CCC54C)C4(C)CCC(O)C(C)(C)C34)OC(CO)C(O)C2O)C(O)C(O)C1O (centres undefined) [Pseudoginsenoside F11] | 4.95
18 | O[C@H]1[C@H](O)[C@@H](O)[C@H](O)[C@@H](O)[C@H]1O [Inositol] | 3.65
19 | CCc1c2c(nc3ccc(OC(=O)N4CCC(N5CCCCC5)CC4)cc13)-c1cc3c(c(=O)n1C2)COC(=O)[C@]3(O)CC [Irinotecan hydrochloride trihydrate] | 41.7
20 | C=C[C@](C)(O)CC[C@@H]1[C@@]2(C)CCCC(C)(C)[C@@H]2CC[C@@]1(C)O [Sclareol] | -9.23
21 | CC1(C)CC[C@]2(C(=O)O)[C@H](O)C[C@]3(C)C(=CC[C@@H]4[C@@]5(C)CC[C@H](O)[C@@](C)(C=O)[C@@H]5CC[C@]43C)[C@@H]2C1 [Quillaic Acid] | -3.5
22 | C[N+](C)(C)CC(=O)O [Betaine] | 5.95
23 | CC(C)[C@@H](C)/C=C/[C@@H](C)[C@H]1CC[C@H]2C3=CC=C4C[C@@H](O)CC[C@]4(C)[C@H]3CC[C@]12C [Ergosterol] | 3.83
24 | OCCc1ccc(O)cc1 [Tyrosol] | 3.69
25 | CC[C@H](C)C(=O)O[C@H]1C[C@@H](C)C=C2C=C[C@H](C)[C@H](CC[C@@H]3C[C@@H](O)CC(=O)O3)[C@H]21 [Lovastatin] | -25.1
26 | CC[C@@]1(O)C(=O)OCc2c1cc1n(c2=O)Cc2cc3c(CN(C)C)c(O)ccc3nc2-1 [Topotecan hydrochloride] | 76.8
27 | C=CCS[S+]([O-])CC=C (centres undefined) [Allicin] | 3.12
28 | CCOC(=O)c1ccc(O)cc1 [Ethylparaben] | 12.5
29 | CC(/C=C/C=C(\C)C(=O)O[C@@H]1O[C@H](CO[C@@H]2O[C@H](CO)[C@@H](O)[C@H](O)[C@H]2O)[C@@H](O)[C@H](O)[C@H]1O)=C\C=C\C=C(C)\C=C\C=C(/C)C(=O)O[C@@H]1O[C@H](CO[C@@H]2O[C@H](CO)[C@@H](O)[C@H](O)[C@H]2O)[C@@H](O)[C@H](O)[C@H]1O [Crocin] | 14.9

A different layout for part of the listing above:
Row	Structure (SMILES)	cell growth inhibition ratio [%]
16	CC(C)=CCC[C@@](O)(CO[C@@H]1O[C@H](CO)[C@@H](O)[C@H](O)[C@H]1O)[C@H]1CC[C@]2(C)[C@@H]1CC[C@@H]1[C@@]3(C=O)CC[C@H](O[C@@H]4OC[C@H](O)[C@H](O[C@@H]5OC[C@@H](O)[C@H](O)[C@H]5O)[C@H]4O[C@@H]4O[C@@H](C)[C@H](O)[C@@H](O)[C@H]4O)C(C)(C)[C@@H]3CC[C@]12C [Gypenoside XLIX]	14.9
17	CC1OC(OC2C(OC3CC4(C)C(CC(O)C5C(C6(C)CCC(C(C)(C)O)O6)CCC54C)C4(C)CCC(O)C(C)(C)C34)OC(CO)C(O)C2O)C(O)C(O)C1O (centres undefined) [Pseudoginsenoside F11]	4.95
18	O[C@H]1[C@H](O)[C@@H](O)[C@H](O)[C@@H](O)[C@H]1O [Inositol]	3.65
19	CCc1c2c(nc3ccc(OC(=O)N4CCC(N5CCCCC5)CC4)cc13)-c1cc3c(c(=O)n1C2)COC(=O)[C@]3(O)CC [Irinotecan hydrochloride trihydrate]	41.7
20	C=C[C@](C)(O)CC[C@@H]1[C@@]2(C)CCCC(C)(C)[C@@H]2CC[C@@]1(C)O [Sclareol]	-9.23
21	CC1(C)CC[C@]2(C(=O)O)[C@H](O)C[C@]3(C)C(=CC[C@@H]4[C@@]5(C)CC[C@H](O)[C@@](C)(C=O)[C@@H]5CC[C@]43C)[C@@H]2C1 [Quillaic Acid]	-3.5
22	C[N+](C)(C)CC(=O)O [Betaine]	5.95
23	CC(C)[C@@H](C)/C=C/[C@@H](C)[C@H]1CC[C@H]2C3=CC=C4C[C@@H](O)CC[C@]4(C)[C@H]3CC[C@]12C [Ergosterol]	3.83
